The target in assay [1] is T1, NtCDKG;2 (N. tabacum Cyclin-Dependent Kinase G;2), fused to the GAL4 DNA binding domain (Nicotiana tabacum).
T1 sequence: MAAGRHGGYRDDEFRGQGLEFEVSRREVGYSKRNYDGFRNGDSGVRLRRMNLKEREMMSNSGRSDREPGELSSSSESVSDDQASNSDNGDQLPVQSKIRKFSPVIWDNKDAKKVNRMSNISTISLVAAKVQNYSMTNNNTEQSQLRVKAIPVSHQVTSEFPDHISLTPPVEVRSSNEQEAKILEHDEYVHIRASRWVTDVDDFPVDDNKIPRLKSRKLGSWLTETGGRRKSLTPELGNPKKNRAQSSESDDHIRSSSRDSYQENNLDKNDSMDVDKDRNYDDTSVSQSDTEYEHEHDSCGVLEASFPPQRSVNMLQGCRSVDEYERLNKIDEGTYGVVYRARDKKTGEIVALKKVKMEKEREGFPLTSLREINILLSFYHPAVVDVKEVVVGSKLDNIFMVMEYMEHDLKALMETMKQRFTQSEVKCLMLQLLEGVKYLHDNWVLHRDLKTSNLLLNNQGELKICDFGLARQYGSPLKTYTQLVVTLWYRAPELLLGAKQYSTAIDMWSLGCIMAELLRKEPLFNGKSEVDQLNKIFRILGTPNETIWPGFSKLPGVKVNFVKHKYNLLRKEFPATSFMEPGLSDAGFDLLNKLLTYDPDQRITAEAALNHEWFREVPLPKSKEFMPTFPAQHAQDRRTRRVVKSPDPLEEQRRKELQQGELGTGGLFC
Description: two-hybrid; pairwise (binary) test in yeast PJ69-4α; DBD-NtCDKG;2 (pDEST32) with AD fusions (pDEST22); growth on SD without leucine, tryptophan and histidine, 30 °C, 2-3 days; 1 mM 3-amino-1,2,4-triazole for NtRanBP1.

Assay [2] has the same target. Description: two-hybrid; screen of a N. tabacum stigma/style cDNA library with NtCDKG;2 in pDEST32 as bait; positive clones Sanger-sequenced.

These are yes or no findings as the source states them, for the method shown. A result given as binding can be weak or reduced; the word gives no strength. Where a sequence is shown, tags or fusion partners need not be part of it.

As for “Ntβ-tubulin, fused to the GAL4 activation domain (Nicotiana tabacum)”, the binding result in assay [1] and in assay [2] was “binds” each time.

(Values after PMC11720235.)
